Measurements as given in the supplement of paper PMC4604168 (melanoma cell lines).
Some of the results follow. Many values rest on one well or one pass, so single values are uncertain.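 Imaging used 1,536-well plates; nuclei positive for cleaved PARP by antibody were divided by total DNA-stained nuclei to yield the apoptosis fraction. Doses for screening kept most cells viable, and cell lines differ markedly in resting and induced cleaved-PARP levels.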

Tests used:
Assay in all cases: cleaved PARP positive nuclei fraction relative to DMSO control; melanoma cells; higher = more apoptosis
Settings in all cases: library dose: low library concentration; 72 h
[1] = system: MZ2-MEL
[2] = system: MeWo
[3] = system: RPMI7951
[4] = system: RVH-421
[5] = system: SkMel28
[6] = system: SkMel2
[7] = system: SkMel30
[8] = system: SkMel5
[9] = system: UACC257
[10] = system: UACC62
[11] = system: WM115
[12] = system: WM1716
[13] = system: WM1745
[14] = system: WM3526
[15] = system: WM3619
[16] = system: WM451Lu

Structure (SMILES)	cleaved PARP positive nuclei fraction [1]	cleaved PARP positive nuclei fraction [2]	cleaved PARP positive nuclei fraction [3]	cleaved PARP positive nuclei fraction [4]	cleaved PARP positive nuclei fraction [5]	cleaved PARP positive nuclei fraction [6]	cleaved PARP positive nuclei fraction [7]	cleaved PARP positive nuclei fraction [8]	cleaved PARP positive nuclei fraction [9]	cleaved PARP positive nuclei fraction [10]	cleaved PARP positive nuclei fraction [11]	cleaved PARP positive nuclei fraction [12]	cleaved PARP positive nuclei fraction [13]	cleaved PARP positive nuclei fraction [14]	cleaved PARP positive nuclei fraction [15]	cleaved PARP positive nuclei fraction [16]
CC1(C)CCC(c2ccc(Cl)cc2)=C(CN2CCN(c3ccc(C(=O)NS(=O)(=O)c4ccc(N[C@H](CCN5CCOCC5)CSc5ccccc5)c(S(=O)(=O)C(F)(F)F)c4)cc3)CC2)C1 + COc1cc(Nc2ncc(F)c(Nc3ccc4c(n3)NC(=O)C(C)(C)O4)n2)cc(OC)c1OC [Tamatinib] (first compound 0.4 µM, partner dose 0.4 µM)	263%	256%	179%	311%	78.4%	96.5%	216%	354%	500%	413%	863%	536%	812%	83.5%	154%	23.7%
C[C@]1(O)C[C@@H](c2nc(-c3ccc4ccc(-c5ccccc5)nc4c3)c3c(N)nccn32)C1 + CO[C@@H]1[C@H](N(C)C(=O)c2ccccc2)C[C@H]2O[C@]1(C)n1c3ccccc3c3c4c(c5c6ccccc6n2c5c31)C(=O)NC4 [Midostaurin] (first compound 0.4 µM, partner dose 0.08 µM)	127%	54.2%	157%	71.6%	307%	95.3%	58.8%	70.8%	67.8%	104%	109%	45.8%	115%	70.8%	135%	43.1%
CS(=O)(=O)c1ccc(C(=O)Nc2ccc(Cl)c(-c3ccccn3)c2)c(Cl)c1 [vismodegib] + O=C(CCCCCCC(=O)Nc1ccccc1)NO [vorinostat] (first compound 1 µM, partner dose 0.08 µM)	112%	50.2%	39.3%	82.4%	50.6%	133%	154%	232%	153%	169%	56.3%	135%	88.4%	69%	97.1%	78.1%
C[C@@H](N)c1ccc(C(=O)Nc2ccnc3[nH]ccc23)cc1 + CC(C)CCN1c2nc(Nc3cc(F)c(O)c(F)c3)ncc2N(C)C(=O)C1C [BID1870] (first compound 0.4 µM, partner dose 0.2 µM)	159%	122%	42.1%	110%	426%	71.8%	72.6%	66.3%	660%	133%	46.7%	64.6%	98%	73.1%	75.9%	73.5%
CC1(C)CCC(c2ccc(Cl)cc2)=C(CN2CCN(c3ccc(C(=O)NS(=O)(=O)c4ccc(N[C@H](CCN5CCOCC5)CSc5ccccc5)c(S(=O)(=O)C(F)(F)F)c4)cc3)CC2)C1 + O=S(=O)(c1ccccc1)N(CC(F)(F)F)c1ccc(C(O)(C(F)(F)F)C(F)(F)F)cc1 [T0901317] (first compound 0.4 µM, partner dose 1.4 µM)	74.1%	344%	94.5%	56.3%	95.8%	64.6%	277%	627%	26%	93.9%	78.2%	171%	502%	180%	120%	143%
Cn1cnc2c(F)c(Nc3ccc(Br)cc3Cl)c(C(=O)NOCCO)cc21 [selumetinib] + COc1cc(Nc2ncc(F)c(Nc3ccc4c(n3)NC(=O)C(C)(C)O4)n2)cc(OC)c1OC [Tamatinib] (first compound 0.015 µM, partner dose 0.4 µM)	562%	118%	157%	66.7%	71.3%	281%	312%	27.6%	353%	173%	288%	39.1%	163%	94.2%	120%	117%
Cn1cnc2c(F)c(Nc3ccc(Br)cc3Cl)c(C(=O)NOCCO)cc21 [selumetinib] + NC(=O)Nc1cc(-c2cccc(F)c2)sc1C(=O)N[C@H]1CCCNC1 [AZD7762] (first compound 0.015 µM, partner dose 0.02 µM)	421%	88.1%	160%	47.6%	86.5%	166%	82.5%	114%	38.6%	135%	160%	65.8%	100%	70.4%	150%	26.1%
C[C@]1(O)C[C@@H](c2nc(-c3ccc4ccc(-c5ccccc5)nc4c3)c3c(N)nccn32)C1 + O=C(Nc1cccc(Cl)c1)Nc1ncc(CCNc2ncnc3ccsc23)s1 [SNS314] (first compound 0.4 µM, partner dose 0.0008 µM)	79.6%	69.7%	94.9%	26.5%	200%	137%	65.3%	176%	210%	179%	153%	60.6%	120%	117%	98.7%	325%
CN(c1ncccc1CNc1nc(Nc2ccc3c(c2)CC(=O)N3)ncc1C(F)(F)F)S(C)(=O)=O + Oc1cc(-c2nc(-c3ccccc3)[nH]c2-c2ccncc2)ccc1Cl [L779450] (first compound 0.08 µM, partner dose 0.2 µM)	103%	130%	291%	120%	201%	220%	248%	92%	270%	224%	151%	54.7%	124%	182%	120%	243%
NC(=O)c1ccc(N(C(N)=O)c2c(F)cccc2F)nc1-c1ccc(F)cc1F + c1cc(-c2cnn3cc(-c4ccc(OCCN5CCCCC5)cc4)cnc23)ccn1 [Dorsomorphin] (first compound 0.4 µM, partner dose 0.4 µM)	152%	92%	307%	91.5%	58.2%	106%	100%	65.3%	101%	67.4%	180%	25%	100%	74.8%	99.8%	128%
Cn1sc(=O)n(Cc2ccccc2)c1=O + CCCCCCCCCCCC1=C(O)C(=O)C=C(O)C1=O [Embelin] (first compound 0.4 µM, partner dose 1.2 µM)	91.4%	70.3%	78%	126%	213%	90.5%	77.3%	147%	143%	202%	39.7%	67.1%	219%	67.2%	95.3%	93.5%
NC(=O)c1ccc(N(C(N)=O)c2c(F)cccc2F)nc1-c1ccc(F)cc1F + NCC(=O)Nc1ccc(-n2nc(C(F)(F)F)cc2-c2ccc3c(ccc4ccccc43)c2)cc1 [OSU03012] (first compound 0.4 µM, partner dose 1 µM)	33.5%	112%	171%	79%	131%	35.1%	130%	141%	319%	714%	136%	165%	102%	90.8%	101%	32.9%
COc1ccc(C2=N[C@@H](c3ccc(Cl)cc3)[C@@H](c3ccc(Cl)cc3)N2C(=O)N2CCNC(=O)C2)c(OC(C)C)c1 [Nutlin-3] + Cn1cc(/C=C2\C(=O)Nc3cccnc32)c2ccccc21 [GW441756] (first compound 0.1 µM, partner dose 0.4 µM)	108%	109%	314%	61.8%	238%	18.1%	40%	91.8%	288%	83.3%	250%	93.4%	98.1%	132%	89.5%	71.6%
Cn1cnc2c(F)c(Nc3ccc(Br)cc3Cl)c(C(=O)NOCCO)cc21 [selumetinib] + O=c1cc(-c2cccc3c2Sc2ccccc2S3)oc(N2CCOCC2)c1 [KU55933] (first compound 0.015 µM, partner dose 1 µM)	174%	148%	35.5%	154%	87.6%	227%	97.9%	54.5%	130%	172%	169%	36%	85.6%	285%	105%	79.2%
NC1(c2ccc(-c3nc4ccn5c(=O)[nH]nc5c4cc3-c3ccccc3)cc2)CCC1 + COc1cc(Nc2ncc(F)c(Nc3ccc4c(n3)NC(=O)C(C)(C)O4)n2)cc(OC)c1OC [Tamatinib] (first compound 0.4 µM, partner dose 0.4 µM)	136%	56.5%	200%	220%	265%	94.3%	83.2%	78.7%	436%	325%	341%	129%	131%	71.1%	114%	46.8%
CC1(C)CCC(c2ccc(Cl)cc2)=C(CN2CCN(c3ccc(C(=O)NS(=O)(=O)c4ccc(N[C@H](CCN5CCOCC5)CSc5ccccc5)c(S(=O)(=O)C(F)(F)F)c4)cc3)CC2)C1 + COC(=O)c1sccc1S(=O)(=O)Nc1ccc(Nc2ccccc2)cc1OC [GSK0660] (first compound 0.4 µM, partner dose 1 µM)	276%	286%	392%	111%	146%	111%	50.8%	120%	306%	93.9%	128%	139%	900%	71%	150%	113%
NC(=O)c1ccc(N(C(N)=O)c2c(F)cccc2F)nc1-c1ccc(F)cc1F + Oc1cc(-c2nc(-c3ccccc3)[nH]c2-c2ccncc2)ccc1Cl [L779450] (first compound 0.4 µM, partner dose 0.2 µM)	88.7%	83.6%	32%	85.2%	177%	124%	117%	37.6%	170%	299%	107%	130%	90.8%	41.7%	203%	19.3%

Complete entries, quoted from the list. Order of values: cleaved PARP positive nuclei fraction [1] | cleaved PARP positive nuclei fraction [2] | cleaved PARP positive nuclei fraction [3] | cleaved PARP positive nuclei fraction [4] | cleaved PARP positive nuclei fraction [5] | cleaved PARP positive nuclei fraction [6] | cleaved PARP positive nuclei fraction [7] | cleaved PARP positive nuclei fraction [8] | cleaved PARP positive nuclei fraction [9] | cleaved PARP positive nuclei fraction [10] | cleaved PARP positive nuclei fraction [11] | cleaved PARP positive nuclei fraction [12] | cleaved PARP positive nuclei fraction [13] | cleaved PARP positive nuclei fraction [14] | cleaved PARP positive nuclei fraction [15] | cleaved PARP positive nuclei fraction [16]
CC1(C)CCC(c2ccc(Cl)cc2)=C(CN2CCN(c3ccc(C(=O)NS(=O)(=O)c4ccc(N[C@H](CCN5CCOCC5)CSc5ccccc5)c(S(=O)(=O)C(F)(F)F)c4)cc3)CC2)C1 + COC(=O)c1sccc1S(=O)(=O)Nc1ccc(Nc2ccccc2)cc1OC [GSK0660] (first compound 0.4 µM, partner dose 1 µM) is listed as 276% | 286% | 392% | 111% | 146% | 111% | 50.8% | 120% | 306% | 93.9% | 128% | 139% | 900% | 71% | 150% | 113%
CS(=O)(=O)c1ccc(C(=O)Nc2ccc(Cl)c(-c3ccccn3)c2)c(Cl)c1 [vismodegib] + O=C(CCCCCCC(=O)Nc1ccccc1)NO [vorinostat] (first compound 1 µM, partner dose 0.08 µM) is listed as 112% | 50.2% | 39.3% | 82.4% | 50.6% | 133% | 154% | 232% | 153% | 169% | 56.3% | 135% | 88.4% | 69% | 97.1% | 78.1%
